Article doi:10.1101/2023.05.21.541661
Results are given in words; binding and its absence hold for the method and conditions named. In cells and extracts the contact can be indirect. Some results given as binding are weak or reduced against the parent protein; the word gives no strength. Sequences can lack the tags named with a protein.

Assays:
Test in all cases: co-IP
FLAG-MCP-SFPQ ΔPLD = biological target: T1, FLAG-MCP-SFPQ ΔPLD (UniProt P23246)
T1 sequence: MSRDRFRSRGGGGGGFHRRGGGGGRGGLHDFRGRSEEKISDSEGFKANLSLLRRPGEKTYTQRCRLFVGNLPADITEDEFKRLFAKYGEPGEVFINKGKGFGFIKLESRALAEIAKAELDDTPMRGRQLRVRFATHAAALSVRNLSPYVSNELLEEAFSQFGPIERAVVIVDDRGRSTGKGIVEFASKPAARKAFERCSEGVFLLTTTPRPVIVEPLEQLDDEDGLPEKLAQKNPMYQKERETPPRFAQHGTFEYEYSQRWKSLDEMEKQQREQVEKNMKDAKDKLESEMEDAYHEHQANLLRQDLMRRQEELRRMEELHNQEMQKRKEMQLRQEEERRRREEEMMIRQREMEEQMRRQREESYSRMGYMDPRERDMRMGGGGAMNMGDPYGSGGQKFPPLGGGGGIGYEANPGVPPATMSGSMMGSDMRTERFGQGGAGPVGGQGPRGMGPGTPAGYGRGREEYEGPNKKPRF

FLAG-MCP-SFPQ ΔCC = biological target: T2, FLAG-MCP-SFPQ ΔCC (UniProt P23246)
T2 sequence: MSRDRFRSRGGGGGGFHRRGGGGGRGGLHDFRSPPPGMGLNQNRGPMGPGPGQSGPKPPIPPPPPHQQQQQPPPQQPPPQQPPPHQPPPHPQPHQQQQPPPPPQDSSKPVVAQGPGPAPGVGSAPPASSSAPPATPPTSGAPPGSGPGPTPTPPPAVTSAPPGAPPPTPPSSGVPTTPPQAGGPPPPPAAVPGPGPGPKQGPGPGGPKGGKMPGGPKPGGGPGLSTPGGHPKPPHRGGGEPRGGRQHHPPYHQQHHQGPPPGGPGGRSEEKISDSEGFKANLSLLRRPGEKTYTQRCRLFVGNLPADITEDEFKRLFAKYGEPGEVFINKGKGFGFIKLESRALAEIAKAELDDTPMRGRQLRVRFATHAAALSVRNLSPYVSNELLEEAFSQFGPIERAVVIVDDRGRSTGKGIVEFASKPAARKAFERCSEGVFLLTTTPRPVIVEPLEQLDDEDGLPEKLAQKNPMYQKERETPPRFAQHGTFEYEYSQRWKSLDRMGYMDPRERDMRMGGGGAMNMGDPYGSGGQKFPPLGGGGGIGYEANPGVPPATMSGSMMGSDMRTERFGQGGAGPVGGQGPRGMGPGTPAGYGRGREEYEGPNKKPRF

FLAG-MCP-SFPQ ΔRRM2/NOPS = biological target: T3, FLAG-MCP-SFPQ ΔRRM2/NOPS (UniProt P23246)
T3 sequence: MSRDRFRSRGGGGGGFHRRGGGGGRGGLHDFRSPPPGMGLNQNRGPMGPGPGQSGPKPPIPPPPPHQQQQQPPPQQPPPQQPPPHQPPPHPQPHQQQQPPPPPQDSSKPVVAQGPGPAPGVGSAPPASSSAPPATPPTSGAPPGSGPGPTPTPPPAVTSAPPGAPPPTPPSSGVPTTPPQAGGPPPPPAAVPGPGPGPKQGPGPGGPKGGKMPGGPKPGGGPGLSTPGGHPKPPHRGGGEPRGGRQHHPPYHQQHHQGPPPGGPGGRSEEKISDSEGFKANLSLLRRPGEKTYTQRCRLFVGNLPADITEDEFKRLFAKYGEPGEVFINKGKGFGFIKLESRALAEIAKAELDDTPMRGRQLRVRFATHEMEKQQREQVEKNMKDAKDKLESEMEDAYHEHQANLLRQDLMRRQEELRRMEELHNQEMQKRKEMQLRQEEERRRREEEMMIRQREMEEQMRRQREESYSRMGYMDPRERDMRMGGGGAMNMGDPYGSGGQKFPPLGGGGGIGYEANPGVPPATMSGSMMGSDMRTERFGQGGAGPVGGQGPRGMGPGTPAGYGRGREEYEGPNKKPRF

FLAG-MCP-SFPQ WT = biological target: T4, FLAG-MCP-SFPQ WT (UniProt P23246)
T4 sequence: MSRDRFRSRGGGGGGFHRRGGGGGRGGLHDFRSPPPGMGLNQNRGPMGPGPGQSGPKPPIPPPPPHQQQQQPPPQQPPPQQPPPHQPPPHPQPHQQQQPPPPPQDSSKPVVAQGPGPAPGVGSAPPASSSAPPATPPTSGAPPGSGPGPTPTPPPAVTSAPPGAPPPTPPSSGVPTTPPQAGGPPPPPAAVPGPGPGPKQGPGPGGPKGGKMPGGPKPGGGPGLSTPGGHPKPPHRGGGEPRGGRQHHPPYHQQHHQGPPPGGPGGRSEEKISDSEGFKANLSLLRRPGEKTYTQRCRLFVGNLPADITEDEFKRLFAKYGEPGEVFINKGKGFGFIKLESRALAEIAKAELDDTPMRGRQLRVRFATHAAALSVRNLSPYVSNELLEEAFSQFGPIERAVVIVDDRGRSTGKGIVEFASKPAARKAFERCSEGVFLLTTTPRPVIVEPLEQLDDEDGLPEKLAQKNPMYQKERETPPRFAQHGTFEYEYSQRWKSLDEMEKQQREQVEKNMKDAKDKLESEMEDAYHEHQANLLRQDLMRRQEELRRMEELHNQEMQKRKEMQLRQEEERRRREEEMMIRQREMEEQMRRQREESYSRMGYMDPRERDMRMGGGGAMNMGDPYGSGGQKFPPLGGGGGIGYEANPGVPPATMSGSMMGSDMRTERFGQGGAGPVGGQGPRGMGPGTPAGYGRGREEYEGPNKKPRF

FLAG-MCP-SFPQ WT, P23246 = biological target: T5, FLAG-MCP-SFPQ WT, P23246; conditions: remark: other sources report otherwise
T5 chain: T4 sequence

B1: PSPC1 (protein, UniProt Q8WXF1 1-523)
chain: MMLRGNLKQVRIEKNPARLRALESAVGESEPAAAAAMALALAGEPAPPAPAPPEDHPDEEMGFTIDIKSFLKPGEKTYTQRCRLFVGNLPTDITEEDFKRLFERYGEPSEVFINRDRGFGFIRLESRTLAEIAKAELDGTILKSRPLRIRFATHGAALTVKNLSPVVSNELLEQAFSQFGPVEKAVVVVDDRGRATGKGFVEFAAKPPARKALERCGDGAFLLTTTPRPVIVEPMEQFDDEDGLPEKLMQKTQQYHKEREQPPRFAQPGTFEFEYASRWKALDEMEKQQREQVDRNIREAKEKLEAEMEAARHEHQLMLMRQDLMRRQEELRRLEELRNQELQKRKQIQLRHEEEHRRREEEMIRHREQEELRRQQEGFKPNYMENREQEMRMGDMGPRGAINMGDAFSPAPAGNQGPPPMMGMNMNNRATIPGPPMGPGPAMGPEGAANMGTPMMPDNGAVHNDRFPQGPPSQMGSPMGSRTGSETPQAPMSGVGPVSGGPGGFGRGSQGGNFEGPNKRRRY
**Q.** Which results are given for B1?
**A.** binding (FLAG-MCP-SFPQ ΔPLD): binds; binding (FLAG-MCP-SFPQ ΔCC): no binding; binding (FLAG-MCP-SFPQ ΔRRM2/NOPS): no binding; binding (FLAG-MCP-SFPQ WT): binds

B2: HA-SFPQ, P23246 1-707 (protein)
chain: T4 sequence
**Q.** With B2 as the binder, how does the binding (FLAG-MCP-SFPQ WT, P23246) read?
**A.** binds
